Reference: patent US12252423B2, “Biodegradation of fluorochemicals” (The Trustees of Princeton University, priority 2018, dated 2025)

Tests used:
A6 enrichment culture [1] = test: Feammox incubation of various PFAS with A6 enrichment culture, day 60; set-up: species or system Acidimicrobiaceae sp. A6; conditions: initial conc. 100 mg/l; for % defluorination of initial compound degraded: ratio of F− produced to F− expected for complete defluorination
[2] = PFAS biodegradation incubation, autoclave control; conditions: 100 ppb, autoclaved
[3] = system: pure strain A6 (Acidimicrobiaceae sp.); test: PFAS biodegradation incubation, pure strain A6; conditions: 100 ppb
[4] = system: pure strain A8 (Terrimonas sp.); test: PFAS biodegradation incubation, pure strain A8; conditions: 100 ppb
A6 enrichment culture [5] = test: PFOA and PFOS enrichment culture incubations vs. time with intermediates, end products and fluorine balance; set-up: species or system Acidimicrobiaceae sp. A6; conditions: fluorine balance, PFOS experiment

Question: Which results are given for `OCCC(F)(F)C(F)(F)C(F)(F)C(F)(F)C(F)(F)C(F)(F)F` [6:2 FTOH, 6:2 Fluorotelomer alcohol]?
Answer: Acetate produced (A6 enrichment culture [1]): 6.6 mg/L; Decrease in concentration (A6 enrichment culture [1]): 19.4 mg/L; F^− produced (A6 enrichment culture [1]): 7.1 mg/L; % defluorination of initial compound degraded (A6 enrichment culture [1]): 55%

Question: Which results are given for `O=S(=O)(O)CCC(F)(F)C(F)(F)C(F)(F)C(F)(F)C(F)(F)C(F)(F)F` [6:2 FTS, 6:2 Fluorotelomer sulfonate]?
Answer: One week removal (%) [2]: −0.40%; One week removal (%) [3]: 3.05%; One week removal (%) [4]: 2.77%; Acetate produced (A6 enrichment culture [1]): 11.0 mg/L; Decrease in concentration (A6 enrichment culture [1]): 18.0 mg/L; F^− produced (A6 enrichment culture [1]): 11.4 mg/L; % defluorination of initial compound degraded (A6 enrichment culture [1]): 109%

Question: With `OCCC(F)(F)C(F)(F)C(F)(F)C(F)(F)C(F)(F)C(F)(F)C(F)(F)C(F)(F)F` [8:2 FTOH, 8:2 Fluorotelomer Alcohol] as the compound, how does the “One week removal (%)” value [2] read?
Answer: 0.05%

Question: What about the “One week removal (%)” value [3] of the same compound?
Answer: 2.08%

Question: And the “One week removal (%)” value [4]?
Answer: 1.42%

Question: What about the Acetate produced (A6 enrichment culture [1]) of the same compound?
Answer: 15.0 mg/L

Question: What about the Decrease in concentration (A6 enrichment culture [1]) of the same compound?
Answer: 25.1 mg/L

Question: And the “F^− produced” value (A6 enrichment culture [1])?
Answer: 17.5 mg/L

Question: And the “% defluorination of initial compound degraded” value (shortened to “% defluorination”) (A6 enrichment culture [1])?
Answer: 100%

Question: Which Acetate produced (A6 enrichment culture [1]) does the source give for `O=P(O)(OCCC(F)(F)C(F)(F)C(F)(F)C(F)(F)C(F)(F)C(F)(F)C(F)(F)C(F)(F)F)OCCC(F)(F)C(F)(F)C(F)(F)C(F)(F)C(F)(F)C(F)(F)C(F)(F)C(F)(F)F` [8:2 diPAP, 8:2 Fluorotelomer phosphate diester] here?
Answer: 2.1 mg/L

Question: What about the Decrease in concentration (A6 enrichment culture [1]) of the same compound?
Answer: 16.2 mg/L

Question: And the “F^− produced” value (A6 enrichment culture [1])?
Answer: 1.8 mg/L

Question: What about the “% defluorination” value (A6 enrichment culture [1]) of the same compound?
Answer: 17%

Question: For `N.O=C(O)C(F)(F)C(F)OC(F)(F)C(F)(F)C(F)(F)OC(F)(F)F` (stereo not drawn) [ADONA, Ammonium 4,8-dioxa-3H-perfluorononanoate], which Acetate produced (A6 enrichment culture [1]) is on record?
Answer: 3.0 mg/L

Question: And the Decrease in concentration (A6 enrichment culture [1])?
Answer: 12.3 mg/L

Question: What about the “F^− produced” value (A6 enrichment culture [1]) of the same compound?
Answer: 1.0 mg/L

Question: And the “% defluorination” value (A6 enrichment culture [1])?
Answer: 15%

Question: What does the source list for `O=C(O)C(F)(F)C(F)(F)C(F)(F)F` [HFBA, Heptafluorobutyric acid]?
Answer: Two week removal (%) [2]: 0.31%; Two week removal (%) [3]: 7.20%; Two week removal (%) [4]: 10.44%

Question: With `O=C(O)C(F)(F)C(F)(F)C(F)(F)F` [PFBA, Perfluorobutanoic acid] as the compound, how does the Acetate produced (A6 enrichment culture [1]) read?
Answer: 31.1 mg/L

Question: And the Decrease in concentration (A6 enrichment culture [1])?
Answer: 41.3 mg/L

Question: And the “F^− produced” value (A6 enrichment culture [1])?
Answer: 24.9 mg/L

Question: What about the “% defluorination” value (A6 enrichment culture [1]) of the same compound?
Answer: 97%

Question: What does the source list for `O=S(=O)(OCC(F)(F)F)C(F)(F)C(F)(F)C(F)(F)C(F)(F)F` [PFBS, 2,2,2-Trifluoroethyl Nonafluorobutanesulfonate]?
Answer: Two week removal (%) [2]: −0.81%; Two week removal (%) [3]: 5.92%; Two week removal (%) [4]: 5.38%; Acetate produced (A6 enrichment culture [1]): 16.2 mg/L; Decrease in concentration (A6 enrichment culture [1]): 35.2 mg/L; F^− produced (A6 enrichment culture [1]): 15.9 mg/L; % defluorination of initial compound degraded (A6 enrichment culture [1]): 79%

Question: For `O=C(O)C(F)(F)C(F)(F)C(F)(F)C(F)(F)C(F)(F)C(F)(F)C(F)(F)F` [PFOA, Perfluorooctanoic acid], which “Two week removal (%)” value [2] is on record?
Answer: 0.18%

Question: What about the “Two week removal (%)” value [3] of the same compound?
Answer: 7.92%

Question: And the “Two week removal (%)” value [4]?
Answer: 5.38%

Question: And the Acetate produced (A6 enrichment culture [1])?
Answer: 23.9 mg/L

Question: What about the Decrease in concentration (A6 enrichment culture [1]) of the same compound?
Answer: 44.4 mg/L

Question: And the “F^− produced” value (A6 enrichment culture [1])?
Answer: 29.5 mg/L

Question: What about the “% defluorination” value (A6 enrichment culture [1]) of the same compound?
Answer: 97%

Question: With `O=S(=O)(O)C(F)(F)C(F)(F)C(F)(F)C(F)(F)C(F)(F)C(F)(F)C(F)(F)C(F)(F)F` [PFOS, Perfluorooctane sulfonate] as the compound, how does the “F in PFOS” value (A6 enrichment culture [5]; 0 days) read?
Answer: 3.54 mM

Question: What about the “F in PFPrA” value (A6 enrichment culture [5]; 0 days) of the same compound?
Answer: 0 mM

Question: And the “F in PFOS” value (A6 enrichment culture [5]; 10 days)?
Answer: 3.06 mM

Question: And the “F in PFPrA” value (A6 enrichment culture [5]; 10 days)?
Answer: 0.009 mM

Question: And the “F in PFOS” value (A6 enrichment culture [5]; 45 days)?
Answer: 2.58 mM

Question: And the “F in PFPrA” value (A6 enrichment culture [5]; 45 days)?
Answer: 0.005 mM

Question: What about the “F in PFOS” value (A6 enrichment culture [5]; 60 days) of the same compound?
Answer: 2.45 mM

Question: And the “F in PFPrA” value (A6 enrichment culture [5]; 60 days)?
Answer: 0.07 mM

Question: And the Acetate produced (A6 enrichment culture [1])?
Answer: 10.0 mg/L

Question: What about the Decrease in concentration (A6 enrichment culture [1]) of the same compound?
Answer: 39.2 mg/L

Question: What about the “F^− produced” value (A6 enrichment culture [1]) of the same compound?
Answer: 18.0 mg/L

Question: And the “% defluorination” value (A6 enrichment culture [1])?
Answer: 71%

Question: For `NS(=O)(=O)C(F)(F)C(F)(F)C(F)(F)C(F)(F)C(F)(F)C(F)(F)C(F)(F)C(F)(F)F` [PFOSA, Perfluorooctane sulfonamide], which Acetate produced (A6 enrichment culture [1]) is on record?
Answer: 4.7 mg/L

Question: What about the Decrease in concentration (A6 enrichment culture [1]) of the same compound?
Answer: 18.5 mg/L

Question: And the “F^− produced” value (A6 enrichment culture [1])?
Answer: 6.1 mg/L

Question: What about the “% defluorination” value (A6 enrichment culture [1]) of the same compound?
Answer: 51%
